Results on four substances are retold here after article PMC10424673 (Journal of Medicinal Chemistry, 2023).

End groups of sequences in plain letters are not given here. Strings that start with PEPTIDE1 are HELM notation: dots part the residues, brackets hold end groups and non-standard residues. The star is where a group is joined. NHNH2 = NN*

The nature of this data set: peptide made by a vendor. The settings on record: whole synthesis.
In the case of “Ac-IKAQWLAAEFIQAVAAVLAMLRNNQFEFAGVAH-NHNH2 (SMILES CC[C@H](C)[C@H](NC(C)=O)C(=O)N[C@@H](CCCCN)C(=O)N[C@@H](C)C(=O)N[C@@H](CCC(N)=O)C(=O)N[C@@H](Cc1c[nH]c2ccccc12)C(=O)N[C@@H](CC(C)C)C(=O)N[C@@H](C)C(=O)N[C@@H](C)C(=O)N[C@@H](CCC(=O)O)C(=O)N[C@@H](Cc1ccccc1)C(=O)N[C@H](C(=O)N[C@@H](CCC(N)=O)C(=O)N[C@@H](C)C(=O)N[C@H](C(=O)N[C@@H](C)C(=O)N[C@@H](C)C(=O)N[C@H](C(=O)N[C@@H](CC(C)C)C(=O)N[C@@H](C)C(=O)N[C@@H](CCSC)C(=O)N[C@@H](CC(C)C)C(=O)N[C@@H](CCCNC(=N)N)C(=O)N[C@@H](CC(N)=O)C(=O)N[C@@H](CC(N)=O)C(=O)N[C@@H](CCC(N)=O)C(=O)N[C@@H](Cc1ccccc1)C(=O)N[C@@H](CCC(=O)O)C(=O)N[C@@H](Cc1ccccc1)C(=O)N[C@@H](C)C(=O)NCC(=O)N[C@H](C(=O)N[C@@H](C)C(=O)N[C@@H](Cc1c[nH]cn1)C(=O)NN)C(C)C)C(C)C)C(C)C)[C@@H](C)CC)”, the “final HPLC purity” value was determined as 95.04%. Then HGDGSFSDEMNTILDNLAARDFINWLIQTKITD, with 95.19%; and “PEPTIDE1{[ac].[dI].[dK].[dA].[dQ].[dW].[dL].[dA].[dA].[dE].[dF].[dI].[dQ].[dA].[dV].[dA].[dA].[dV].[dL].[dA].[dM].[dL].[dR].[dN].[dN].[dQ].[dF].[dE].[dF].[dA].G.[dV].[dA].[dH].[am]}$$$$V2.0”, with 96.60%; and “PEPTIDE1{[ac].[dI].[dK].[dA].[dQ].[dW].[dL].[dA].[dA].[dE].[dF].[dI].[dQ].[dA].[dV].[dA].[dA].[dV].[dL].[dA].[dM].[dL].[dR].[dN].[dN].[dQ].[dF].[dE].[dF].[dA].G.[dV].[dE].[dH].[am]}$$$$V2.0”, with 95.10%.
